Results on two molecules are retold here after article PMC9739881.

Test [1] addresses T1, OsPK1 (rice (japonica)) (UniProt Q2RAK2).
T1 sequence: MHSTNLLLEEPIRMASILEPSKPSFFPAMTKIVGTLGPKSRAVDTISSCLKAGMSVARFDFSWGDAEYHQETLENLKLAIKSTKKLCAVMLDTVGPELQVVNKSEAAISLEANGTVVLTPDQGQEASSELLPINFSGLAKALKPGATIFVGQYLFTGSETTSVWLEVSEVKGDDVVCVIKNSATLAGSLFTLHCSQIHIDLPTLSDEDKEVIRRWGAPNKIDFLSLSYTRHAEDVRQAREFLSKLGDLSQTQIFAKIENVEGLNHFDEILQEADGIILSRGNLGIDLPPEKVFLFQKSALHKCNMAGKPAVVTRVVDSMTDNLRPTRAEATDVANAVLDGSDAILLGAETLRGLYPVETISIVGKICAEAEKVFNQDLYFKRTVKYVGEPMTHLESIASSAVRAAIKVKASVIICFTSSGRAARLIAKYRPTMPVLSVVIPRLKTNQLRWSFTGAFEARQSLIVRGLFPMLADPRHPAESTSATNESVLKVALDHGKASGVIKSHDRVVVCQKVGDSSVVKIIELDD
The experiment in a line: two-hybrid; yeast two-hybrid; pGADT7 prey vector and pGBKT7 bait vector; one-tenth dilution series spotted on SD/-Leu/-Trp and on selective SD/-Leu/-Trp/-Ade/-His.

The target of test [2] is OsPK10 (rice (japonica)). Described as above.

These are yes or no findings as the source states them, for the method shown.

Regarding OsPK4 (rice (japonica)) (enzyme), the binding result in test [1] is “no binding”.

B1: OsPK1 (enzyme, UniProt Q2RAK2 1-527)
chain: T1 sequence
Regarding B1, the binding entry in test [2] is reported as “no binding”.
